These are yes or no findings as the source states them, for the method shown. Binding seen in cells or lysates may run through a third protein. Here binding means that the protein was enriched with, or labelled near, the bait; the list need not be complete. A no says only that the protein was not detected with the bait.
T1: TIP47 (human (endogenous in PLC)) (UniProt O60664)
T1 sequence: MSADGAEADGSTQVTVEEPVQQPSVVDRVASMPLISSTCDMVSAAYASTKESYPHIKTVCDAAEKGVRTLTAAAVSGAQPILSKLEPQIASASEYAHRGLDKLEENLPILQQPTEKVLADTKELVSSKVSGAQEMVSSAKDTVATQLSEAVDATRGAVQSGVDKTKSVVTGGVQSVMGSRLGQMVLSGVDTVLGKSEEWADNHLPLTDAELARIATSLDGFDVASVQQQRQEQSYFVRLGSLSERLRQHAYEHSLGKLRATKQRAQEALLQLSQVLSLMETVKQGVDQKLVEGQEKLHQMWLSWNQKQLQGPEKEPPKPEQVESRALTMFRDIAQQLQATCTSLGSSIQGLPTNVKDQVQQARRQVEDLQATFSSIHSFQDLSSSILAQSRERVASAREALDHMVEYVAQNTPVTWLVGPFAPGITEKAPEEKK

Amino acid sequences for entries named in this document (tags omitted).
UniProt Q8NFW8: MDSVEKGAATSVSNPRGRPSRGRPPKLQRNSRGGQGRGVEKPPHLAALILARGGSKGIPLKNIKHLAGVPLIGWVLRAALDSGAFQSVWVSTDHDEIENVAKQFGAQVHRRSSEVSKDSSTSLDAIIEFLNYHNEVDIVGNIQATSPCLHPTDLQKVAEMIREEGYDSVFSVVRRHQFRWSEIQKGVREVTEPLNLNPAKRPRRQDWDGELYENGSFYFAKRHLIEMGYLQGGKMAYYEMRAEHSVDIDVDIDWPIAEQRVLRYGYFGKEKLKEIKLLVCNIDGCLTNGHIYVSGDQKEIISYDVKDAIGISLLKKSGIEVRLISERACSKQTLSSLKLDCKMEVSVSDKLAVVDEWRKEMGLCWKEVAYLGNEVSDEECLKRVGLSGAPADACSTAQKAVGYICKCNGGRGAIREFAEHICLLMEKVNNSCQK

T2: Adipophilin (human (endogenous in PLC)) (UniProt Q99541)
T2 sequence: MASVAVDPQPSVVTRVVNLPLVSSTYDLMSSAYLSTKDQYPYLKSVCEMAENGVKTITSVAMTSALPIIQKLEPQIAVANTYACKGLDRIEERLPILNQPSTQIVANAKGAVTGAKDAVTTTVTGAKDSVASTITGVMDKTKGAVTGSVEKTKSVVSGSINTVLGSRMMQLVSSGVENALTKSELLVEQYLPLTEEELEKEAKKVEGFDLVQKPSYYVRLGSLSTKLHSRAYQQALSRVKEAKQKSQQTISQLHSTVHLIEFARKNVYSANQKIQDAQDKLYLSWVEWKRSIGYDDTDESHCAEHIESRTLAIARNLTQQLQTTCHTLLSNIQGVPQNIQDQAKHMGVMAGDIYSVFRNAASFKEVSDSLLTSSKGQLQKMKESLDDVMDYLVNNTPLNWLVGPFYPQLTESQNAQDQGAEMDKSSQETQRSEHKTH

B1: delta-24-sterol reductase (enzyme, UniProt Q15392 23-516)
chain: LEFVLIHQRWVFVCLFLLPLSLIFDIYYYVRAWVVFKLSSAPRLHEQRVRDIQKQVREWKEQGSKTFMCTGRPGWLTVSLRVGKYKKTHKNIMINLMDILEVDTKKQIVRVEPLVTMGQVTALLTSIGWTLPVLPELDDLTVGGLIMGTGIESSSHKYGLFQHICTAYELVLADGSFVRCTPSENSDLFYAVPWSCGTLGFLVAAEIRIIPAKKYVKLRFEPVRGLEAICAKFTHESQRQENHFVEGLLYSLDEAVIMTGVMTDEAEPSKLNSIGNYYKPWFFKHVENYLKTNREGLEYIPLRHYYHRHTRSIFWELQDIIPFGNNPIFRYLFGWMVPPKISLLKLTQGETLRKLYEQHHVVQDMLVPMKCLQQALHTFQNDIHVYPIWLCPFILPSQPGLVHPKGNEAELYIDIGAYGEPRVKHFEARSCMRQLEKFVRSVHGFQMLYADCYMNREEFWEMFDGSLYHKLREKLGCQDAFPEVYDKICKAARH
B2: AUP1 homolog protein (protein, UniProt Q9Y679 1-410)
chain: MELPSGPGPERLFDSHRLPGDCFLLLVLLLYAPVGFCLLVLRLFLGIHVFLVSCALPDSVLRRFVVRTMCAVLGLVARQEDSGLRDHSVRVLISNHVTPFDHNIVNLLTTCSTPLLNSPPSFVCWSRGFMEMNGRGELVESLKRFCASTRLPPTPLLLFPEEEATNGREGLLRFSSWPFSIQDVVQPLTLQVQRPLVSVTVSDASWVSELLWSLFVPFTVYQVRWLRPVHRQLGEANEEFALRVQQLVAKELGQTGTRLTPADKAEHMKRQRHPRLRPQSAQSSFPPSPGPSPDVQLATLAQRVKEVLPHVPLGVIQRDLAKTGCVDLTITNLLEGAVAFMPEDITKGTQSLPTASASKFPSSGPVTPQPTALTFAKSSWARQESLQERKQALYEYARRRFTERRAQEAD
B3: Cytokeratin 18 (protein, UniProt P05783 1-430)
chain: MSFTTRSTFSTNYRSLGSVQAPSYGARPVSSAASVYAGAGGSGSRISVSRSTSFRGGMGSGGLATGIAGGLAGMGGIQNEKETMQSLNDRLASYLDRVRSLETENRRLESKIREHLEKKGPQVRDWSHYFKIIEDLRAQIFANTVDNARIVLQIDNARLAADDFRVKYETELAMRQSVENDIHGLRKVIDDTNITRLQLETEIEALKEELLFMKKNHEEEVKGLQAQIASSGLTVEVDAPKSQDLAKIMADIRAQYDELARKNREELDKYWSQQIEESTTVVTTQSAEVGAAETTLTELRRTVQSLEIDLDSMRNLKASLENSLREVEARYALQMEQLNGILLHLESELAQTRAEGQRQAQEYEALLNIKVKLEAEIATYRRLLEDGEDFNLGDALDSSNSMQTIQKTTTRRIVDGKVVSETNDTKVLRH
B4: delta-7-sterol reductase (enzyme, UniProt Q9UBM7 1-475)
chain: MAAKSQPNIPKAKSLDGVTNDRTASQGQWGRAWEVDWFSLASVIFLLLFAPFIVYYFIMACDQYSCALTGPVVDIVTGHARLSDIWAKTPPITRKAAQLYTLWVTFQVLLYTSLPDFCHKFLPGYVGGIQEGAVTPAGVVNKYQINGLQAWLLTHLLWFANAHLLSWFSPTIIFDNWIPLLWCANILGYAVSTFAMVKGYFFPTSARDCKFTGNFFYNYMMGIEFNPRIGKWFDFKLFFNGRPGIVAWTLINLSFAAKQRELHSHVTNAMVLVNVLQAIYVIDFFWNETWYLKTIDICHDHFGWYLGWGDCVWLPYLYTLQGLYLVYHPVQLSTPHAVGVLLLGLVGYYIFRVANHQKDLFRRTDGRCLIWGRKPKVIECSYTSADGQRHHSKLLVSGFWGVARHFNYVGDLMGSLAYCLACGGGHLLPYFYIIYMAILLTHRCLRDEHRCASKYGRDWERYTAAVPYRLLPGIF

Legend:
[1] = biological target: T1, TIP47 (human (endogenous in PLC)); test: affinity purification with mass spectrometry; immunoprecipitation from density gradient fractions LD1, LD2 and LD3 of oleic acid treated PLC cells, methanol precipitated and dissolved in RIPA buffer; mabs TIP47, MLDP-382, AP125 and control VE-cadherin on protein A or G magnetic beads, overnight at 4°C; SDS-PAGE, silver staining, nanoLC-ESI-MS/MS of bands
[2] = biological target: T2, Adipophilin (human (endogenous in PLC)); test: as above

Molecule	binding [1]	binding [2]
Clathrin (human (endogenous in PLC))	binds	–
N-acylneuraminate cytidylyltransferase (from UniProt Q8NFW8 1-434) (enzyme)	binds	–
fatty acyl-CoA reductase (human (endogenous in PLC)) (enzyme)	binds	–
serine palmitoyl transferase (human (endogenous in PLC)) (enzyme)	binds	–
sterol-regulatory element binding protein 3 (SREBP-3) (human (endogenous in PLC))	binds	–
tubulin (human (endogenous in PLC))	no binding	no binding
B1	binds	–
B2	binds	binds
B3	–	binds
B4	binds	–

Source: paper PMC3660578
